No constants are given. Whether binding was seen depends on the method and setting. Binding seen in cells or lysates may run through a third protein. Some results given as binding are weak or reduced against the parent protein; the word gives no strength.
Target: T1, Bcl-3 (endogenous, Treg cells) (mouse (endogenous in Tregs)) (UniProt Q9Z2F6)
T1 sequence: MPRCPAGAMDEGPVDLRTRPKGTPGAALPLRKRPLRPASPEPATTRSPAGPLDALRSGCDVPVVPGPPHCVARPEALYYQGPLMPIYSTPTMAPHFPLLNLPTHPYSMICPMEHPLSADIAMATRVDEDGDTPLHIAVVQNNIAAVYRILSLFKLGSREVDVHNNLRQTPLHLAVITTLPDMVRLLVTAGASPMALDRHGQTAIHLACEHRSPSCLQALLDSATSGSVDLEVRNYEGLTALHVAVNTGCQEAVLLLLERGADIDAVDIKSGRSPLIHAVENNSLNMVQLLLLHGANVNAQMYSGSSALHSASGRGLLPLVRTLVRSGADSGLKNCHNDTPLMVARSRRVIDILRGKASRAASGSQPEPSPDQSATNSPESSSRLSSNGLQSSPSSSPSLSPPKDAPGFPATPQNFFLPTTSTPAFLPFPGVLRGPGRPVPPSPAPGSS
Assay: co-IP; immunoprecipitation with Bcl-3 antibodies (sc-185, on Protein G Dynabeads) from protein extracts of in vitro differentiated wt Tregs restimulated with PMA/Ionomycin for 4 h; lysis buffer 20 mM Tris/HCl pH 7.5, 0.25% NP40, 150 mM NaCl, 1.5 mM MgCl2, 1 mM DTT; 4 h; immunoblot with antibodies against Bcl-3 or p50

Protein sequences, listed by entry. Tags and fused reporters are not part of them. Residues count along the entry.
UniProt P25799, residues 1-431: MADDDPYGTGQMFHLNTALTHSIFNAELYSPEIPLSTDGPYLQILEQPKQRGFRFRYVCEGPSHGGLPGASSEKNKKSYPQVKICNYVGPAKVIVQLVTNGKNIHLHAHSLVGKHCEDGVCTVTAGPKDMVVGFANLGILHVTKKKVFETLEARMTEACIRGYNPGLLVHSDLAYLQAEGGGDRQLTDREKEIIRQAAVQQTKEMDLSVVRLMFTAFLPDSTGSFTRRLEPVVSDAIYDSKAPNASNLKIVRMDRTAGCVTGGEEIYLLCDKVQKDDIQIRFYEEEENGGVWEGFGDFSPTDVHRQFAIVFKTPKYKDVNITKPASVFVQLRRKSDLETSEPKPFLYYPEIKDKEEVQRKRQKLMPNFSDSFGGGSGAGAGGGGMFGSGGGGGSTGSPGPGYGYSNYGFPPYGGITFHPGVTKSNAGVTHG

“NF-κB p50 (endogenous, Treg cells) (from UniProt P25799 1-431)” was tested, and the binding was “binds”.

From paper PMC5414353
